Assay results: patent US12577230B2, “2-(3-pyridin-2-yl-4-quinolin-4-yl-pyrazol-1-yl)- acetamide derivatives as inhibitors of transforming growth factor-beta receptor I/ALK5” (AGOMAB SPAIN S.L.U., priority 2020, dated 2026)
Some results were stated once for a whole list of compounds, not compound by compound.

Assay: Determination of plasma stability in human plasma
Type: in vitro ADME
Method: Determination of Plasma Stability of Some Compounds
Human plasma pooled from healthy donors extracted in citrate tubes was employed in the assay. Briefly, plates containing 10 μM compounds in plasma (total volume: 50 μL) were incubated at 37° C. at the different times (0, 30, 120 and 360 min). Then 100 μl Acetonitrile were added for precipitating plasma protein, and the plate was centrifuged at 46000 g for 60 min at 5° C. Supernatant was taken and analysed by UPLC/MS/MS for sample quantification. Stationary phase: Reverse phase Acquity UPLC® BEH C18 1.7 μm (2.1 mm×50 mm) (Waters). Mobile phase: 0.1% Formic acid water/0.1% formic acid in acetonitrile.
Flow: 0.6 ml/min. The chromatographic equipment employed was an UPL QSM Waters Acquity. Compound concentrations were calculated from the MS peak areas.

Structure (SMILES)	remaining of initial amount after 6 hours
Cc1cccc(-c2nn(CC(=O)Nc3cc(F)cc(C(=O)OCC4CC4)c3)cc2-c2ccnc3ccccc23)n1 [Comparative example 1, Cyclopropylmethyl 3-fluoro-5-(2-(3-(6-methylpyridin-2-yl)-4-(quinolin-4-yl)-1H-pyrazol-1-yl)acetamido)benzoate, reference compound]	up to 60%
Cc1cccc(-c2nn(CC(=O)Nc3cc(F)cc(C(=O)OCCO)c3)cc2-c2ccnc3ccccc23)n1 [Comparative example 3, 2-hydroxyethyl 3-fluoro-5-(2-(3-(6-methylpyridin-2-yl)-4-(quinolin-4-yl)-1H-pyrazol-1-yl)acetamido)benzoate, reference compound]	up to 60%
COC(=O)c1cc(Cl)cc(NC(=O)Cn2cc(-c3ccnc4ccccc34)c(-c3cccc(C)n3)n2)c1 [Comparative example 2, methyl 3-chloro-5-(2-(3-(6-methylpyridin-2-yl)-4-(quinolin-4-yl)-1H-pyrazol-1-yl)acetamido)benzoate, reference compound]	up to 60%
